Measurements reported in US20170260278A1.
Results are given in words; binding and its absence hold for the method and conditions named. Some binding calls cover weakened binding; strength is not graded here.

Sequences of proteins named here, by UniProt entry; tags and fusion partners are left off. A change or cut given only in a name is not applied to a line headed by its entry.
UniProt Q9QUG3: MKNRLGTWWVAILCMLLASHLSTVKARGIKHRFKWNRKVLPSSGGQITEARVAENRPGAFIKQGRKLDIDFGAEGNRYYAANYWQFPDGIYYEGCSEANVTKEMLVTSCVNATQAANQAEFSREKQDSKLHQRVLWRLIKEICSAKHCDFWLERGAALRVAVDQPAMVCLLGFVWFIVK

Key:
mouse doppel (mouse) [1] = molecular target: mouse doppel (mouse) (UniProt Q9QUG3); assay: epitope mapping experiment
mouse doppel (mouse) [2] = molecular target: mouse doppel (mouse) (UniProt Q9QUG3); assay: screening ELISA on mouse doppel; western blot of TEC lysates
mouse doppel (mouse) [3] = molecular target: mouse doppel (mouse) (UniProt Q9QUG3); assay: peptide microarray of overlapping 15-residue peptides of mouse doppel (sequences on the x axis), antibody at 1 and 10 µg/ml, fluorescence intensity [a.u.]

B1: anti-doppel monoclonal antibody produced by hybridoma cell line clone 4D6 (antibody, V domains shown)
VH: QVQLHQSGSELARPGASVKLSCKASGYTFTNYWMQWVKQRPGQGLEWIGAIYPGDGNTRYSQKFKGKATLTADKSSSTAYMQLSSLASEDSAVYYCARRDYGSSYWYFDVWGAGTTVTVSS
VL: DVLMTQTPLSLPVSLGDQASISCRSSQSIVHSNGNTYLEWYLQKPGQSPKLLIYKVSNRFSGVPDRFSGSGSGTDFTLKISRVEAEDLGVYYCFQGSHVPLTFGAGTKLELKR
**Q.** B1 was tested. Which binding (mouse doppel (mouse) [1]) did it give?
**A.** binds

**Q.** And the binding (mouse doppel (mouse) [2])?
**A.** binds

**Q.** And the binding (mouse doppel (mouse) [3])?
**A.** binds

B2: anti-doppel monoclonal antibody produced by hybridoma cell line clone 5C7 (antibody, V domains shown)
VH: QVQLQQSGTELVRPGSSVKISCKASGYAFSSHWMNWVKQRPGQGLEWIGQIYPRNGDTNYNGKFKGKATLTADKSSSTAYMQLSSLTSEDSAVYFCSRSTTIVTTGAYWGQGTLVTVSA
VL: DIQMTQSPSSLSASLGERVSLTCRASQEISGYLSWLQQKPDGTIKRLIYAASILDSGVPKRFSGSRSGSDYSLTISSLESEDFADYYCLQYASYPFMFGAGTKLELKR
**Q.** With B2 as the binder, how does the binding (mouse doppel (mouse) [1]) read?
**A.** binds

**Q.** What about the binding (mouse doppel (mouse) [2]) of the same binder?
**A.** binds

**Q.** And the binding (mouse doppel (mouse) [3])?
**A.** binds

B3: anti-doppel monoclonal antibody produced by hybridoma cell line clone 1C8 (antibody, V domains shown)
VH: EVQLVESGGDLVKPGGSLKLSCAASGFTFSNYGMSWVRQTPDKRLEWVATISSGGRYIYYPDSVKGRFTVSRDNAKNTLYLQMSSLKSEDTAMYYCARDSSDYGFAYWGQGTLVTVSA
VL: DVLMTQIPLSLPVSLGDQASISCRSSQSIVHSNGNTYLEWYLQKPGQSPKLLIYKVSNRFSGVPDRFSGSGSGTDFTLKISRVEAEDLGVYYCFQGSHVPWTFGGGTKLEIKR
**Q.** With B3 as the binder, how does the binding (mouse doppel (mouse) [2]) read?
**A.** binds

B4: anti-doppel monoclonal antibody produced by hybridoma cell line clone 6F11 (antibody, V domains shown)
VH: QVQLQQSGTELVRPGSSVKISCKASGYAFSSHWMNWVKQRPGQGLEWIGQIYPRNGDTNYNGKFKGKATLTADKSSSTAYMQLSSLTSEDSAVYFCSRSTTIVTTGAYWGQGTLVTVSA
VL: DIQMTQSPSSLSASLGERVSLTCRASQEISGYLSWLQQKPDGTIKRLIYAASILDSGVPKRFSGSRSGSDYSLTISSLESEDFADYYCLQYASYPFMFGAGTKLELKR
**Q.** For B4, which binding (mouse doppel (mouse) [2]) is on record?
**A.** binds
